Earlier results, collected in patent US11825820B2, “Poly-glutamine androgen receptor knock-in mouse models, reagents and methods” (priority 2017, dated 2023).
At least one compound was matched to its structure with a doubt left.

Assays:
NASH = settings: 30 mg/day
[1] = test system: patients with non-cirrhotic, non-alcoholic steatohepatitis

SMILES | efficacy against NASH in clinical studies (NASH) | relative risk of improved liver histology vs placebo ([1]; 72 weeks, 95% CI 1.4 to 3.3) | patients with improved liver histology ([1]; biopsies at baseline and 72 weeks, 50 of 110 patients, placebo 21%) [%]
CCc1ccc(CCOc2ccc(CC3SC(=O)NC3=O)cc2)nc1 (stereo not drawn) [Pioglitazone] | significant results |  | 
CC[C@H]1[C@@H](O)[C@@H]2[C@H](CC[C@]3(C)[C@@H]([C@H](C)CCC(=O)O)CC[C@@H]23)[C@@]2(C)CC[C@@H](O)C[C@@H]12 [obeticholic acid] |  | 2.2 | 45
